According to patent US5679641A, “Peptides of human P53 protein for use in human T cell response inducing compositions, and human P53 protein-specific cytotoxic t-lymphocytes” (Rijksuniversiteit Leiden, priority 1992, dated 1997):
Part of at least one peptide drawing is inferred or uncertain, most often the ends. No end group written: not given here.

These compounds were tested on HLA-A2.1 positive PBL (assay: Induction of primary in vitro CTL response with peptide loaded 174CEM.T2 cells, cloning of CTL). Conditions: peptide loaded antigen processing defective cell line 174.CEM T2, peptide 80 μg/ml, PBL of healthy HLA-A2.1 positive donor.
Type: cell-based, human
Procedure: Responder T cells are included in mononuclear white blood cells (PBL) of an HLA-A2.1 positive healthy donor. The PBL were separated from a buffycoat by Ficoll procedure (LYMPHOPREP of Nycomed-pharma, Oslo, Norway, cat. no. 105033) and washed two times in RPMI 1640 (Gibco Paislan, Scotland, cat. no. 041-02409) supplemented with 30% pooled human serum (tested for its capacity to support mixed lymphocyte cultures), 2 mM glutamine (ICN Biochemicals, Inc., Costa Mesa, Calif., USA, cat. no. 15-801-55), penicillin (100 IU/ml, Brocades Pharma, Leiderdorp, The Netherlands), kanamycin ([…], Sigma, St. Louis, Mo., USA).
174CEM.T2 (T2) cells in a concentration of 2×10^6 per ml were incubated for 13 hours at 37° C. in a T25 flask (Falcon, Becton & Dickinson, Plymouth, England, cat. no. 3013) in serum-free ISCOVE's medium (Biochrom KG, Seromed, Berlin, Gemany, cat. no. F0465) with glutamine (2 mM, ICN Biochemicals Inc., Costa Mesa, Calif., USA, cat. no. 15-801-55) and antibiotics as mentioned under 2 and individual p53 peptides at a final concentration of 80 μg/ml. Subsequently the T2 cells were spun down and treated at a density of 20×10^6 cells/ml with Mitomycin C (final concentration 50 μg/ml) in serum-free RPMI 1640 (manufacturer see 2) medium during one hour at 37° C. Thereafter the T2 cells were washed three times in RPMI 1640. […]

Row | Compound | primary in vitro human CTL response against the peptide
1 | CC(C)C[C@H](NC(=O)[C@@H](N)Cc1ccccc1)C(=O)N[C@@H](Cc1c[nH]cn1)C(=O)N[C@@H](CO)C(=O)NCC(=O)N[C@H](C(=O)N[C@@H](C)C(=O)N[C@@H](CCCCN)C(=O)N[C@@H](CO)C(=O)N[C@H](C(=O)O)C(C)C)[C@@H](C)O [compound 9] | possible so far to generate a primary in vitro human CTL response

The compounds below were run against T1, HLA-A2.1 molecule (Homo sapiens, UniProt P04439, D140Y/D185E/D98H/E176V/E277Q/G131W/G231S/I119V/I121R/I166T/I218V/L300P/L318F/N151K/N90K/P208A/P217A/Q86G/Q94H/R138H/R169H/T345S) (assay: Peptide binding: upregulation of HLA-A2.1 expression on (174.CEM) T2 cells, FACScan). Conditions: 200 μg/ml peptide, 16 hours at 37° C., antibody BB7.2, mean fluorescence with peptide divided by without, positive when ratio of 1.2 is reached.
T1 construct: endogenous in cells; host or cells: 174.CEM T2 (antigen-processing-defective human T x B hybrid cell line, provided by P. Cresswell)
Type: cell-based

Row | Compound | fluorescence ratio (i.e. binding ability)
2 | CC(C)C[C@H](NC(=O)[C@H](CCCCN)NC(=O)[C@H](Cc1c[nH]c2ccccc12)NC(=O)[C@H](CC(C)C)NC(=O)[C@@H](N)CC(=O)O)C(=O)N[C@@H](CC(C)C)C(=O)N1CCC[C@H]1C(=O)N[C@@H](CCC(=O)O)C(=O)N[C@@H](CC(N)=O)C(=O)N[C@@H](CC(N)=O)C(=O)N[C@H](C(=O)O)C(C)C [compound 1] | 1.2
3 | CC(C)C[C@H](NC(=O)[C@H](CCC(N)=O)NC(=O)[C@@H](NC(=O)[C@@H]1CCCN1C(=O)[C@H](CS)NC(=O)[C@@H](NC(=O)[C@H](CCCCN)NC(=O)[C@H](C)NC(=O)[C@H](CC(C)C)NC(=O)[C@@H](N)CCC(N)=O)[C@@H](C)O)C(C)C)C(=O)O [compound 13] | 1.3
4 | CC[C@H](C)[C@H](NC(=O)[C@H](CC(C)C)NC(=O)[C@H](Cc1c[nH]cn1)NC(=O)[C@H](CCC(N)=O)NC(=O)[C@@H]1CCCN1C(=O)[C@@H]1CCCN1C(=O)[C@H](C)NC(=O)[C@H](CC(C)C)NC(=O)CN)C(=O)O [compound 16] | 1.2
5 | CC(C)C[C@H](NC(=O)[C@H](CC(C)C)NC(=O)[C@H](CC(N)=O)NC(=O)CNC(=O)[C@H](CO)NC(=O)[C@H](CO)NC(=O)[C@H](CC(=O)O)NC(=O)[C@H](CCC(=O)O)NC(=O)[C@H](CC(C)C)NC(=O)[C@@H](N)[C@@H](C)O)C(=O)O [compound 20] | 1.3
6 | CSCC[C@H](NC(=O)[C@@H](N)CCC(=O)O)C(=O)N[C@@H](Cc1ccccc1)C(=O)N[C@@H](CCCNC(=N)N)C(=O)N[C@@H](CCC(=O)O)C(=O)N[C@@H](CC(C)C)C(=O)N[C@@H](CC(N)=O)C(=O)N[C@@H](CCC(=O)O)C(=O)N[C@@H](C)C(=O)O [compound 25] | 1.8
7 | CC(C)C[C@H](NC(=O)[C@H](CC(N)=O)NC(=O)CNC(=O)[C@H](CO)NC(=O)[C@H](CO)NC(=O)[C@H](CC(=O)O)NC(=O)[C@H](CCC(=O)O)NC(=O)[C@H](CC(C)C)NC(=O)[C@@H](N)[C@@H](C)O)C(=O)N[C@@H](CC(C)C)C(=O)N[C@H](C(=O)O)C(C)C [compound 36] | 1.8
8 | ALNKMLCQL [compound 26] | 1.4
9 | DRNTFRHSVV [compound 19] | 1.2
10 | GLAPPQHFIRV [compound 34] | 1.2
11 | KMFYQLAKT [compound 30] | 1.3
12 | KQSQHMTEVL [compound 32] | 1.3
13 | KTYPVQLWV [compound 31] | 1.2
14 | LLVRNSFEV [compound 37] | 1.6
15 | LPPGSTKRA [compound 24] | 1.2
16 | NMFCQLAKT [compound 28] | 1.5
17 | NQRPILTII [compound 35] | 1.2
